No constants are given. Whether binding was seen depends on the method and setting. A result given as binding can be weak or reduced; the word gives no strength.
Target: Rho protein-dependent protein kinase (Human)
Test: yeast two-hybrid

binding: binds
B1: Human Splicing Factor 1 (protein)
chain: ATGANATPLDFPSKKRKRSRWNQDTMEQKTVIPGMPTVIPPGLTREQERAYIVQLQIEDLTRKLRTGDLGIPPNPEDRSPSPEPIYNSEGKRLNTREFRTRKKLEEERHNLITEMVALNPDFKPPADYKPPATRVSDKVMIPQDEYPEINFVGLLIGPRGNTLKNIEKECNAKIMIRGKGSVKEGKVGRKDGQMLPGEDEPLHALVTANTMENVKKAVEQIRNILKQGIETPEDQNDLRKMQLRELARLNGTLREDDNRILRPWQSSETRSITNTTVCTKCGGAGHIASDCKFQRPGDPQSAQDKARMDKEYLSLMAELGEAPVPASVGSTSGPATTPLASAPRPAAPANNPPPPSLMSTTQSRPPWMNSGPSESRPYHGMHGGGPGGPGGGPHSFPHPLPSLTGGHGGHPMQHNPNGPPPPWMQPPPPPMNQGPHPPGHHGPPPMDQYLGSTPVGSGVYRLHQGKGMMPPPPMGMMPPPPPPPSGQPPPPPSGPLPPWQQQQQQPPPPPPPSSSMASSTPLPWQQNTTTTTTSAGTGSIPPWQQQQAAAAASPGAPQMQGNPTMVPLPPGVQPPLPPGAPPPPPPPPPGSAGMMIPPRGGDGPSHESEDFPRPLVTLPGRQPQQRPWWTGWFGKAA
